Some of these results come from one statement about several compounds together.
Molecular target: T1, human JAK1 kinase domain (Homo sapiens, UniProt P23458)
T1 construct: made in house; host or cells: SF9 insect cells (baculovirus)
Test: JAK1 inhibition assay (Example B), Caliper LabChip peptide phosphorylation
Format: biochemical
Conditions: 1.5 nM JAK1, 25 μM ATP, Morrison tight binding model; read-out: Ki in a JAK1 kinase activity assay (Example B)

The chains behind the UniProt entries cited, without tags or fusion partners. Residues count along the entry.
UniProt P23458, 852-1154: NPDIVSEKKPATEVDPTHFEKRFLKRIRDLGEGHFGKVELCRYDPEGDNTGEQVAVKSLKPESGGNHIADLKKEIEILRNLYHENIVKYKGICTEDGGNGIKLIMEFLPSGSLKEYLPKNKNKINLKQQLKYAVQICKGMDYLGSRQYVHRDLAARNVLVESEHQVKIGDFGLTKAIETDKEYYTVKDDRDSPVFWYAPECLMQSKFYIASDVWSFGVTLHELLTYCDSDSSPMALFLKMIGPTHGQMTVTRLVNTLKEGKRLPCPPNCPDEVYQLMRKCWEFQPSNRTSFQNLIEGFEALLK

Row | Structure (SMILES) | Ki [nM]
1 | Cc1nc2cnc3[nH]ccc3c2n1[C@H]1CCC[C@](C)(O)C1 [Example 886, (1S,3S)-1-Methyl-3-(2-methyl-6H-1,3,5,6-tetraaza-as-indacen-1-yl)-cyclohexanol] | < 500
2 | COCC(=O)NC1CCC(n2cnc3cnc4[nH]ccc4c32)CC1 (centres unmarked) [Example 887, 2-Methoxy-N-[4-(6H-1,3,5,6-tetraaza-as-indacen-1-yl)-cyclohexyl]-acetamide] | < 500
3 | Cc1nc2cnc3[nH]ccc3c2n1[C@H]1CCC[C@@](C)(O)C1 [Example 888, (1R,3S)-1-Methyl-3-(2-methyl-6H-1,3,5,6-tetraaza-as-indacen-1-yl)-cyclohexanol] | < 500
4 | COC1CCCC(n2c(C)nc3cnc4[nH]ccc4c32)C1 (centres unmarked) [Example 889, 1-(3-Methoxy-cyclohexyl)-2-methyl-1,6-dihydro-1,3,5,6-tetraaza-as-indacene] | < 500
5 | Cc1nc2cnc3[nH]ccc3c2n1[C@@H]1CCC[C@](C)(O)C1 [Example 890, (1S,3R)-1-Methyl-3-(2-methyl-6H-1,3,5,6-tetraaza-as-indacen-1-yl)-cyclohexanol] | < 500
6 | C[C@@H](O)c1nc2cnc3[nH]ccc3c2n1N1CCOCC1 [Example 891, (R)-1-(1-Morpholin-4-yl-1,6-dihydro-1,3,5,6-tetraaza-as-indacen-2-yl)-ethanol] | < 500
7 | Cc1nc2cnc3[nH]ccc3c2n1[C@@H]1CCC[C@@](C)(O)C1 [Example 892, (1R,3R)-1-Methyl-3-(2-methyl-6H-1,3,5,6-tetraaza-as-indacen-1-yl)-cyclohexanol] | < 500
8 | C[C@@H](O)c1nc2cnc3[nH]ccc3c2n1[C@H]1CCN(CCC#N)C1 [Example 893, 3-{(S)-3-[2-((R)-1-Hydroxy-ethyl)-6H-1,3,5,6-tetraaza-as-indacen-1-yl]-pyrrolidin-1-yl}-propionitrile] | < 500
9 | Cc1cc(CN2CCC(n3c(C(C)O)nc4cnc5[nH]ccc5c43)C(F)C2)on1 (centres unmarked) [Example 895, 1-{1-[3-Fluoro-1-(3-methyl-isoxazol-5-ylmethyl)-piperidin-4-yl]-1,6-dihydro-1,3,5,6-tetraaza-as-indacen-2-yl}-ethanol] | < 500
10 | C[C@@H](O)c1nc2cnc3[nH]ccc3c2n1C1CCN(Cc2ccn[nH]2)CC1 [Example 896, (R)-1-{1-[1-(2H-Pyrazol-3-ylmethyl)-piperidin-4-yl]-1,6-dihydro-1,3,5,6-tetraaza-as-indacen-2-yl}-ethanol] | < 500
11 | OCc1nc2cnc3[nH]ccc3c2n1C1CCN(CC(F)F)CC1 [Example 897, {1-[1-(2,2-Difluoro-ethyl)-piperidin-4-yl]-1,6-dihydro-1,3,5,6-tetraaza-as-indacen-2-yl}-methanol] | < 500
12 | C[C@@H](O)c1nc2cnc3[nH]ccc3c2n1C1CCN(Cc2cnco2)CC1 [Example 898, (R)-1-[1-(1-Oxazol-5-ylmethyl-piperidin-4-yl)-1,6-dihydro-1,3,5,6-tetraaza-as-indacen-2-yl]-ethanol] | < 500
13 | Cc1cc(CN2CCC(n3c([C@@H](C)O)nc4cnc5[nH]ccc5c43)CC2)no1 [Example 899, (R)-1-{1-[1-(5-Methyl-isoxazol-3-ylmethyl)-piperidin-4-yl]-1,6-dihydro-1,3,5,6-tetraaza-as-indacen-2-yl}-ethanol] | < 500
14 | CCn1ncc(CN2CCC(n3c([C@@H](C)O)nc4cnc5[nH]ccc5c43)CC2)c1C [Example 900, (R)-1-{1-[1-(1-Ethyl-5-methyl-1H-pyrazol-4-ylmethyl)-piperidin-4-yl]-1,6-dihydro-1,3,5,6-tetraaza-as-indacen-2-yl}-ethanol] | < 500
15 | Cc1nc2ncccn2c1CN1CCC(n2c([C@@H](C)O)nc3cnc4[nH]ccc4c32)CC1 [Example 901, (R)-1-{1-[1-(2-Methyl-imidazo[1,2-a]pyrimidin-3-ylmethyl)-piperidin-4-yl]-1,6-dihydro-1,3,5,6-tetraaza-as-indacen-2-yl}-ethanol] | < 500

Results, then the molecule that gave them:

Row | Ki [nM] | Structure (SMILES)
16 | < 500 | CC(=O)NCCc1nc2cnc3[nH]ccc3c2n1[C@@H]1CCCOC1 [Example 865, (R)—N-{2-[1-(Tetrahydro-pyran-3-yl)-1,6-dihydro-1,3,5,6-tetraaza-as-indacen-2-yl]-ethyl}-acetamide]
17 | < 500 | C[C@@H](O)c1nc2cnc3[nH]ccc3c2n1C1CCCC1 [Example 867, (R)-1-(1-Cyclopentyl-1,6-dihydro-1,3,5,6-tetraaza-as-indacen-2-yl)-ethanol]
18 | < 500 | CCN1CC[C@@H](n2c([C@@H](C)O)nc3cnc4[nH]ccc4c32)[C@@H](F)C1 [Example 868, (R)-1-[1-((3S,4R)-1-Ethyl-3-fluoro-piperidin-4-yl)-1,6-dihydro-1,3,5,6-tetraaza-as-indacen-2-yl]-ethanol]
19 | < 500 | C[C@@H](O)c1nc2cnc3[nH]ccc3c2n1C1CCN(CC(=O)N2CCOCC2)CC1 [Example 870, 2-{4-[2-((R)-1-Hydroxy-ethyl)-6H-1,3,5,6-tetraaza-as-indacen-1-yl]-piperidin-1-yl}-1-morpholin-4-yl-ethanone]
20 | < 500 | C#CCCN1CCC(n2c([C@@H](C)O)nc3cnc4[nH]ccc4c32)CC1 [Example 871, (R)-1-[1-(1-But-3-ynyl-piperidin-4-yl)-1,6-dihydro-1,3,5,6-tetraaza-as-indacen-2-yl]-ethanol]
21 | < 500 | C[C@@H](O)c1nc2cnc3[nH]ccc3c2n1C1CCN(CC(=O)N2CCCC2)CC1 [Example 872, 2-{4-[2-((R)-1-Hydroxy-ethyl)-6H-1,3,5,6-tetraaza-as-indacen-1-yl]-piperidin-1-yl}-1-pyrrolidin-1-yl-ethanone]
22 | < 500 | C[C@@H](O)c1nc2cnc3[nH]ccc3c2n1C1CCN(CCF)CC1 [Example 873, (R)-1-{1-[1-(2-Fluoro-ethyl)-piperidin-4-yl]-1,6-dihydro-1,3,5,6-tetraaza-as-indacen-2-yl}-ethanol]
23 | < 500 | C[C@@H](O)c1nc2cnc3[nH]ccc3c2n1C1CCNCC1F (stereo partly drawn) [Example 877, (R)-1-[1-(3-Fluoro-piperidin-4-yl)-1,6-dihydro-1,3,5,6-tetraaza-as-indacen-2-yl]-ethanol]
24 | < 500 | O[C@@H](c1nc2cnc3[nH]ccc3c2n1C1CCCCC1)C(F)(F)F [Example 878, (S)-1-(1-Cyclohexyl-1,6-dihydro-1,3,5,6-tetraaza-as-indacen-2-yl)-2,2,2-trifluoro-ethanol]
25 | < 500 | C[C@@H](O)c1nc2cnc3[nH]ccc3c2n1C1CCOCC1 [Example 881, (R)-1-[1-(Tetrahydro-pyran-4-yl)-1,6-dihydro-1,3,5,6-tetraaza-as-indacen-2-yl]-ethanol]
26 | < 500 | C[C@@H](O)c1nc2cnc3[nH]ccc3c2n1N1CCCCC1 [Example 882, (R)-1-(1-Piperidin-1-yl-1,6-dihydro-1,3,5,6-tetraaza-as-indacen-2-yl)-ethanol]
27 | < 500 | CC(C)CC(=O)NC1CCC(n2nnc3cnc4[nH]ccc4c32)CC1 (centres unmarked) [Example 883, 3-Methyl-N-[4-(6H-1,2,3,5,6-pentaaza-as-indacen-1-yl)-cyclohexyl]-butyramide]
28 | < 500 | O=C(NC1CCC(n2cnc3cnc4[nH]ccc4c32)CC1)c1cccnc1 (centres unmarked) [Example 884, N-[4-(6H-1,3,5,6-Tetraaza-as-indacen-1-yl)-cyclohexyl]-nicotinamide]
29 | < 500 | Cc1nc2cnc3[nH]ccc3c2n1[C@@H]1CCCC(=O)C1 [Example 885, (R)-3-(2-Methyl-6H-1,3,5,6-tetraaza-as-indacen-1-yl)-cyclohexanone]

From patent publication US8461328B2, “Tricyclic heterocyclic compounds, compositions and methods of use thereof” (Genentech, Inc., priority 2010, dated 2013)
